From the supplement of paper PMC10735217
Some of the results follow. Repeats in this data set agree poorly, so a single value says little.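 Human kidney-derived cells stably carry a construct in which eight TEAD-binding elements drive luciferase, measured by luminescence in a drug-repurposing library screen. A hit is any compound whose signal exceeds the plate mean by more than five robust Z scores.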

Test system: HEK293A TEAD-LUC reporter
Experiment: TEAD-luciferase reporter activity (YAP activation), robust Z score vs plate; higher = stronger YAP/TEAD activation
Settings: 24 h

| Compound | TEAD-luciferase reporter activity (compound concentration: 200 nM) | TEAD-luciferase reporter activity (compound concentration: 2 uM) | TEAD-luciferase reporter activity (compound concentration: 10 uM) |
| --- | --- | --- | --- |
| Cc1nc(C(=O)N2CCCC[C@H]2CNC(=O)c2cccc3occc23)c(-c2ccc(F)cc2)s1 | inactive: -0.349 | inactive: 2.13 | inactive: -0.735 |
| CC(=O)Nc1ccc(C(=O)O)cc1 | inactive: -1.62 | inactive: -0.298 | inactive: 1.21 |
| Cc1cnc(C(=O)O)c[n+]1[O-] [acipimox] | inactive: -1 | inactive: -2.29 | inactive: -1.51 |
| CCCC1O[C@@H]2C[C@H]3[C@@H]4CCC5=CC(=O)C=C[C@]5(C)[C@H]4[C@@H](O)C[C@]3(C)[C@]2(C(=O)CO)O1 (some centres not stated) [Budesonide] | inactive: 0.211 | inactive: -0.881 | inactive: 0.513 |
| CC(=O)C(=Cc1ccccc1)C(C)=O | inactive: -1.02 | inactive: -0.917 | inactive: -1.13 |
| CC1CC(=O)NN=C1c1ccc(N2CCN(C(=N)NCCCc3c[nH]cn3)CC2)c([N+](=O)[O-])c1 (configuration not stated) | inactive: 2.29 | inactive: -1.11 | inactive: 0.0225 |
| COc1cc(N2CCN(C(=O)Cn3nc(-c4ncc[nH]4)c4cccnc43)CC2)ccc1Cl | inactive: 0.425 | inactive: -0.665 | inactive: -0.273 |
| CC(C(=O)OCCN1CCN(CCOC(=O)C(C)c2cccc3ccccc23)CC1)c1cccc2ccccc12 (configuration not stated) | inactive: -0.43 | inactive: -1.26 | inactive: -0.524 |
| Cc1ccc(CCN2CCCCC23Cc2ccccc2CN(C(=O)CCC(=O)O)C3)cc1 (configuration not stated) | inactive: 1.86 | – | inactive: -0.27 |
| CCN1CCCC1CNS(=O)(=O)c1cc(Cl)c(N)cc1OC (configuration not stated) [lorapride] | inactive: 1.68 | inactive: -0.678 | inactive: -1.42 |
| C#Cc1cnc2nc(O)n(C(CC)CC)c2n1 [tirasemtiv] | inactive: -2.16 | inactive: 1.97 | inactive: 2.3 |
| O=C1NOCC1/N=C/c1ccc(/C=N/C2CONC2=O)cc1 (configuration not stated) | inactive: -1.08 | inactive: -1.2 | inactive: -0.727 |
| O=C(CCCN1CCC(n2c(=S)[nH]c3ccccc32)CC1)c1ccc(F)cc1 [timiperone] | inactive: -2.99 | inactive: -0.513 | inactive: 4.77 |
| Cc1c(Cl)cccc1Nc1ncccc1C(=O)OCC(O)CO (configuration not stated) | inactive: 1.36 | inactive: -0.522 | inactive: 3.72 |
| CCn1c2ccccc2c2cc(CN[C@H](C)CO)ccc21 | inactive: -1.18 | inactive: -0.916 | active: 9.77 |
| COC(F)(F)C(Cl)Cl [methoxyflurane] | – | inactive: -0.92 | – |
| COC(F)(F)C(Cl)Cl [methoxyflurane, Medical Developments] | inactive: -1.07 | – | inactive: 0.0206 |

Fetched one by one from the list above (two):

| Compound | TEAD-luciferase reporter activity (compound concentration: 200 nM) | TEAD-luciferase reporter activity (compound concentration: 2 uM) | TEAD-luciferase reporter activity (compound concentration: 10 uM) |
| --- | --- | --- | --- |
| CCN1CCCC1CNS(=O)(=O)c1cc(Cl)c(N)cc1OC (configuration not stated) [lorapride] | inactive: 1.68 | inactive: -0.678 | inactive: -1.42 |
| COC(F)(F)C(Cl)Cl [methoxyflurane] | – | inactive: -0.92 | – |
